Series [1] has as its system 5xFAD mice. The experiment in a line: Object Location Test (OLT) in Alzheimer's disease mouse model. The settings on record: 100 mg/kg subcutaneous twice per week, 2 months; compared with 5xFAD(Vehicle); Fig. 14. As to the method:
(§1) Specifically, as illustrated in the schematic diagram of Fig. 8, saline or KINE-101 synthesized in < Example 1> at a dose of 100 mg/kg was subcutaneously administered twice per week for a total of 2 months to 4-month-old 5xFAD mice induced by amyloid beta. In addition, normal littermate mice of the 5xFAD mice were used as a normal control group and were subcutaneously administered saline in the same manner.
Further, in order to determine whether spatial memory, which is a representative cognitive impairment observed in Alzheimer's disease patients, was improved, an Object Location Test (OLT) was performed. Similar to NORT, OLT allows experimental animals to explore two objects; however, instead of replacing one object with a novel object, only the location of one of the existing objects is changed, as shown in Fig. 11. This test method evaluates whether exploration time for the new location increases by inducing reorganization of place cells in the hippocampus as a result of object relocation in experimental animals with innate exploratory behavior. A discrimination index was calculated according to the following equation (Fig. 14): Discrimination Index = time spent exploring the relocated object location / (time spent exploring the relocated object location + time spent exploring the unchanged object location).

Series [2] relates to human microglia (hMG). The series is described as follows: Microglial phagocytosis: intracellularly internalized amyloid beta (pH-sensitive red fluorescence). Conditions: hMG with 1 µM oligomeric Aβ and 10 ng/mL IFNγ; KINE-101 1, 5, 10, 100 or 500 ng/mL; Fig. 4. The protocol:
(§2) Specifically, as illustrated in the schematic diagram of Fig. 1, an Alzheimer's disease environment, which is the major cause of dementia, was established by treating cultured human microglia (hMG) with 1 µM oligomeric amyloid beta protein (Aβ), known to be a causative factor of Alzheimer's disease, and 10 ng/mL interferon-gamma (IFNγ), an inflammatory substance. Under these conditions, KINE-101 prepared in <Example 1> was treated at concentrations of 1, 5, 10, 100, or 500 ng/mL. After two days, the culture medium was replaced and the same treatment was repeated.
Further, in order to investigate the degree of enhancement of microglial phagocytosis by KINE-101, intracellularly internalized amyloid beta protein was quantified. […] Red fluorescence images were obtained using a fluorescence microscope and quantified and compared using a software program (Fig. 4).

In series [3] the test system is human microglia (hMG). The series is described as follows: Intracellular nitric oxide (NO) staining in microglia under an Alzheimer's disease environment. Conditions: hMG with 1 µM oligomeric Aβ and 10 ng/mL IFNγ; KINE-101 1, 5, 10, 100 or 500 ng/mL; Fig. 3. The protocol: as §2
In addition, in order to evaluate the reduction of inflammatory substances by KINE-101, nitric oxide (NO), an inflammatory substance involved in the progression of Alzheimer's disease and present intracellularly, was stained with Difluorofluorescein-FM diacetate, and images were obtained using a fluorescence microscope. The intensity of the fluorescence signal was quantified and analyzed using a software program to confirm the degree of NO reduction induced by KINE-101 (Fig. 3).

For series [4], the system named is 5xFAD mice. The series is described as follows: Long-term potentiation (LTP) measurement in hippocampus of Alzheimer's disease mouse model. The settings on record: 100 mg/kg subcutaneous twice per week, 2 months; compared with 5xFAD(Vehicle); Fig. 15. The protocol:
as §1
Specifically, long-term potentiation (LTP) was measured by electrophysiological analysis using the mouse model of Example <4-2>. LTP was determined by comparing the amplitude of population-spikes (pop-spikes) before (baseline) and 25 minutes after application of theta burst stimulation (TBS), which is a short-term high-frequency stimulus. For LTP measurement, the mice were anesthetized, and electrical signals, namely population-spikes (pop-spikes), were induced in the hippocampus of the anesthetized mice (Fig. 15).

A short description of series [5]: Blood-brain barrier (BBB) permeability in mice, bio-imaging of FITC-labeled peptide. The settings on record: FITC-labeled KINE-101, 20 mg/kg intravenous (tail vein), 8-week-old male C57BL/6 mice; Fig. 6. As to the method:
Specifically, as illustrated in the schematic diagram of Fig. 5, KINE-101 labeled with fluorescence (FITC) was intravenously administered at 20 mg/kg into the tail vein of 8-week-old male C57BL/6 mice, and fluorescence signals detected in the brain were monitored over time using a bio-imaging system (Fig. 6).

The next series relates to C57BL/6 mice. The series is described as follows: Y-maze test in scopolamine-induced dementia mouse model. The settings on record: scopolamine I.P. 1 mg/kg, Fig. 17C. From the text:
Specifically, scopolamine is a competitive antagonist that interferes with the binding of the neurotransmitter acetylcholine to acetylcholine receptors expressed in neurons, and is known to induce cognitive impairment, including learning and memory deficits, when administered to animals. In particular, scopolamine is known to activate microglia, thereby increasing inflammatory cytokines and oxidative stress and causing neuronal damage. In addition, the Y-maze test is a behavioral test designed based on the high exploratory tendency of mice toward novel environments and is used to evaluate working memory in animals (Fig. 17A). Accordingly, as illustrated in the schematic diagram of Fig. 17B, 8-week-old male C57BL/6 mice were divided into four groups, and KINE-101 (experimental group) or PBS (negative control group) was administered to each group by subcutaneous injection twice per week for 2 weeks under the conditions shown in Table 2. Four days later, scopolamine was administered by intraperitoneal injection. Thirty minutes after scopolamine administration, the mice were placed in a Y-shaped maze, and the sequence of movement through each arm during a 5-minute period was recorded. The percentage of spontaneous alternation (% Alternation) was quantified by calculating the number of entries into different arms (Fig. 17C).

Series [6] has as its system 5xFAD mice. The series is described as follows: Amyloid beta protein deposited in brain tissues of Alzheimer's disease mouse model. The settings on record: 4 weeks, 4-month-old 5xFAD mice, Fig. 7. As to the method: Specifically, the amyloid beta-induced Alzheimer's disease mouse model, 5xFAD mice, was obtained from Jackson Laboratory. This Alzheimer's disease mouse model is known to overexpress human amyloid beta protein, which undergoes extracellular oligomerization and is ultimately deposited as insoluble protein aggregates, thereby damaging neurons and causing dementia. Accordingly, KINE-101 synthesized in < Example 1> was administered intravenously through the tail vein of 4-month-old 5xFAD mice induced by amyloid beta at doses of 50 or 100 mg/kg, twice per week. After 4 weeks, brain tissues were sectioned into thin slices using a vibratome, and amyloid beta protein was probed using an antibody labeled with fluorescence (FITC dye). Images were obtained using a fluorescence microscope (Fig. 7A), and the amount of amyloid beta protein deposited in the brain tissues was quantified using Cytation5 software (Fig. 7B).

For series [7], the system named is human microglia (hMG). The series is described as follows: CD86/CD206 marker staining of microglia cultured under an Alzheimer's disease environment. The settings on record: hMG with 1 µM oligomeric Aβ and 10 ng/mL IFNγ; KINE-101 1, 5, 10, 100 or 500 ng/mL; Fig. 2. The protocol:
as §2
After an additional two days, in order to investigate whether the state of the microglia had shifted from a pro-inflammatory state (M1) to an anti-inflammatory state (M2), the cells were fixed using a fixative, and stained with antibodies against CD86, a marker of the pro-inflammatory state of microglia, and CD206, a marker of the anti-inflammatory state, followed by staining with fluorescence-labeled secondary antibodies. Images were obtained using a fluorescence microscope, and fluorescence signals were quantified using a software program to compare the degree of transition from the pro-inflammatory state to the anti-inflammatory state induced by KINE-101 (Fig. 2).

The subject of series [8] is 5xFAD mice. The series is described as follows: Elevated Plus Maze behavioral test in Alzheimer's disease mouse model. The settings on record: 100 mg/kg subcutaneous twice per week, 2 months; compared with 5xFAD(Vehicle); Fig. 12. The protocol: as §1
After completion of administration, an Elevated Plus Maze behavioral test was performed to evaluate anxiety-related behavior using an elevated cross-shaped maze, as shown in Fig. 9. The Elevated Plus Maze apparatus used in this experiment was designed to be positioned 40 cm above the floor surface, and among the four arms, two opposing arms were configured as closed arms with walls, while the remaining two arms were configured as open arms without walls. […] The duration of stay in each arm was recorded by video for 5 minutes, and anxiety-related behavior was quantitatively compared by analyzing the time spent in the open arms without protective walls (Fig. 12).

For series [9], the system named is 5xFAD mice. The series is described as follows: Sharp-wave ripples (SWRs) analysis in hippocampus of Alzheimer's disease mouse model. The settings on record: 100 mg/kg subcutaneous twice per week, 2 months, compared with 5xFAD(Vehicle). As to the method:
as §1
In addition, the replay mechanism, which is strengthened for the conversion of place cells into long-term memory, is observed in the form of sequential burst activation of hippocampal neurons when experimental animals cease exploration. Such phenomena are referred to as sharp waves (1-50 Hz) and ripples (125-250 Hz) according to the signal pattern, and collectively designated as sharp-wave ripples (SWRs). In order to determine whether administration of KINE-101 restores spatial memory formation ability in an Alzheimer's disease mouse model, the occurrence frequency and intensity of SWRs were comparatively analyzed. SWRs were determined by continuously measuring electrophysiological signals through electrodes implanted in the hippocampus, followed by measuring the occurrence frequency (events/s) and intensity (µV^2) when signals within predetermined frequency ranges (sharp waves: 1-50 Hz; ripples: 125-250 Hz) exceeded the threshold value (4-fold the standard deviation) (Fig. 16).

Series [10] relates to 5xFAD mice. The series is described as follows: Novel Object Recognition Test (NORT) in Alzheimer's disease mouse model. Conditions: 100 mg/kg subcutaneous twice per week, 2 months; compared with 5xFAD(Vehicle); Fig. 13. As to the method:
as §1
In addition, in order to investigate whether KINE-101 can improve memory-related cognitive impairment, a Novel Object Recognition Test (NORT) was performed to evaluate object recognition memory. NORT is a test method based on the tendency of experimental animals with innate exploratory behaviorto show greater interest in and spend more time investigating novel objects. […] Thereafter, one of the objects was replaced with a novel object, and the time spent by the animals in remembering the previously encountered object and exploring the novel object was measured. In addition, a discrimination index was calculated according to the following equation (Fig. 13): Discrimination Index = time spent exploring the novel object / (time spent exploring the novel object + time spent exploring the familiar object).

The structures appear in SMILES notation. The match of structure and compound is tentative. A value given as a limit tells only on which side of the number the result lay.

Turning to `O=C(N[C@@H](CO)C(=O)N1CCC[C@H]1C(=O)N1CCC[C@H]1C(=O)N[C@@H](CO)C(=O)N1CCC[C@H]1C(=O)N1CCC[C@H]1C(=O)N[C@@H](CO)C(=O)N1CCC[C@H]1C(=O)O)[C@@H]1CCCN1`, the “exploration of the relocated object location (OLT)” value with 5xFAD mice [1] is on record as “explored the new location to which the object had been moved for a longer period of time”. For the same compound, the “intracellular transport of amyloid beta in microglia” value in the series with human microglia (hMG) [2] is listed as “increased in a concentration-dependent manner”. Moreover, the “NO, an inflammatory substance produced in microglia” value in the series with human microglia (hMG) [3] is “concentration-dependently reduced”. Further, the “LTP (pop-spike amplitude before and 25 minutes after theta burst stimulation)” value in the series with 5xFAD mice [4] is listed as “increased LTP”. Moreover, in series [5], the “time after administration at which fluorescence signals were first observed in the brain region” value was 10 s, the “time for which the fluorescence signal in the brain was maintained” value was found to be 2 h and the “time of the strongest fluorescence signal in the brain” value was determined as 10 min. Moreover, in the series with C57BL/6 mice (KINE-101 100 mg/kg S.C. twice per week for 2 weeks), the “spontaneous alternation ratio (% Alternation)” value is given as “comparable to that of the positive control group”. The “spontaneous alternation ratio (% Alternation)” value in the series on C57BL/6 mice (KINE-101 50 or 100 mg/kg S.C. twice per week for 2 weeks, versus Vehicle (PBS)) is reported as “statistically significantly increased”. Moreover, the “amyloid beta protein in the brain tissues” value in the series with 5xFAD mice [6] (50 mg/kg intravenous twice per week) is “somewhat reduced”. Moreover, the “reduction of amyloid beta protein in the brain tissues” value with 5xFAD mice [6] (100 mg/kg intravenous twice per week) was not below 60%. Moreover, in the series with human microglia (hMG) [7], the “CD86, a marker of the pro-inflammatory state of microglia” value is given as “concentration-dependently decreased” and the “CD206, a marker of the anti-inflammatory state” value is “increasing”. Also, the “duration of stay in the open arms” value in the series on 5xFAD mice [8] is listed as “significantly shorter”. Moreover, in the series with 5xFAD mice [9] (Fig. 16B), the “occurrence frequency of SWRs” value is given as “increased”. For the same compound, the “intensity of SWRs” value with 5xFAD mice [9] (Fig. 16C) was “increased”. The “exploration of the novel object (NORT)” value in the series with 5xFAD mice [10] is reported as “explored the novel object for a longer period of time”.

For the origin of these results see EP4847032A1, “USE OF PEPTIDE AS THERAPEUTIC AGENT FOR DEGENERATIVE BRAIN DISEASES” (dated 2026).
